Source: article PMC9168619 (The Journal of Biological Chemistry, 2022)
Like-named read-outs stand apart in the source and are kept apart here. No constants are given. Whether binding was seen depends on the method and setting. In cells and extracts the contact can be indirect. Here binding means that the protein was enriched with, or labelled near, the bait; the list need not be complete.

Amino acid sequences for entries named in this document (tags omitted).
UniProt P35658: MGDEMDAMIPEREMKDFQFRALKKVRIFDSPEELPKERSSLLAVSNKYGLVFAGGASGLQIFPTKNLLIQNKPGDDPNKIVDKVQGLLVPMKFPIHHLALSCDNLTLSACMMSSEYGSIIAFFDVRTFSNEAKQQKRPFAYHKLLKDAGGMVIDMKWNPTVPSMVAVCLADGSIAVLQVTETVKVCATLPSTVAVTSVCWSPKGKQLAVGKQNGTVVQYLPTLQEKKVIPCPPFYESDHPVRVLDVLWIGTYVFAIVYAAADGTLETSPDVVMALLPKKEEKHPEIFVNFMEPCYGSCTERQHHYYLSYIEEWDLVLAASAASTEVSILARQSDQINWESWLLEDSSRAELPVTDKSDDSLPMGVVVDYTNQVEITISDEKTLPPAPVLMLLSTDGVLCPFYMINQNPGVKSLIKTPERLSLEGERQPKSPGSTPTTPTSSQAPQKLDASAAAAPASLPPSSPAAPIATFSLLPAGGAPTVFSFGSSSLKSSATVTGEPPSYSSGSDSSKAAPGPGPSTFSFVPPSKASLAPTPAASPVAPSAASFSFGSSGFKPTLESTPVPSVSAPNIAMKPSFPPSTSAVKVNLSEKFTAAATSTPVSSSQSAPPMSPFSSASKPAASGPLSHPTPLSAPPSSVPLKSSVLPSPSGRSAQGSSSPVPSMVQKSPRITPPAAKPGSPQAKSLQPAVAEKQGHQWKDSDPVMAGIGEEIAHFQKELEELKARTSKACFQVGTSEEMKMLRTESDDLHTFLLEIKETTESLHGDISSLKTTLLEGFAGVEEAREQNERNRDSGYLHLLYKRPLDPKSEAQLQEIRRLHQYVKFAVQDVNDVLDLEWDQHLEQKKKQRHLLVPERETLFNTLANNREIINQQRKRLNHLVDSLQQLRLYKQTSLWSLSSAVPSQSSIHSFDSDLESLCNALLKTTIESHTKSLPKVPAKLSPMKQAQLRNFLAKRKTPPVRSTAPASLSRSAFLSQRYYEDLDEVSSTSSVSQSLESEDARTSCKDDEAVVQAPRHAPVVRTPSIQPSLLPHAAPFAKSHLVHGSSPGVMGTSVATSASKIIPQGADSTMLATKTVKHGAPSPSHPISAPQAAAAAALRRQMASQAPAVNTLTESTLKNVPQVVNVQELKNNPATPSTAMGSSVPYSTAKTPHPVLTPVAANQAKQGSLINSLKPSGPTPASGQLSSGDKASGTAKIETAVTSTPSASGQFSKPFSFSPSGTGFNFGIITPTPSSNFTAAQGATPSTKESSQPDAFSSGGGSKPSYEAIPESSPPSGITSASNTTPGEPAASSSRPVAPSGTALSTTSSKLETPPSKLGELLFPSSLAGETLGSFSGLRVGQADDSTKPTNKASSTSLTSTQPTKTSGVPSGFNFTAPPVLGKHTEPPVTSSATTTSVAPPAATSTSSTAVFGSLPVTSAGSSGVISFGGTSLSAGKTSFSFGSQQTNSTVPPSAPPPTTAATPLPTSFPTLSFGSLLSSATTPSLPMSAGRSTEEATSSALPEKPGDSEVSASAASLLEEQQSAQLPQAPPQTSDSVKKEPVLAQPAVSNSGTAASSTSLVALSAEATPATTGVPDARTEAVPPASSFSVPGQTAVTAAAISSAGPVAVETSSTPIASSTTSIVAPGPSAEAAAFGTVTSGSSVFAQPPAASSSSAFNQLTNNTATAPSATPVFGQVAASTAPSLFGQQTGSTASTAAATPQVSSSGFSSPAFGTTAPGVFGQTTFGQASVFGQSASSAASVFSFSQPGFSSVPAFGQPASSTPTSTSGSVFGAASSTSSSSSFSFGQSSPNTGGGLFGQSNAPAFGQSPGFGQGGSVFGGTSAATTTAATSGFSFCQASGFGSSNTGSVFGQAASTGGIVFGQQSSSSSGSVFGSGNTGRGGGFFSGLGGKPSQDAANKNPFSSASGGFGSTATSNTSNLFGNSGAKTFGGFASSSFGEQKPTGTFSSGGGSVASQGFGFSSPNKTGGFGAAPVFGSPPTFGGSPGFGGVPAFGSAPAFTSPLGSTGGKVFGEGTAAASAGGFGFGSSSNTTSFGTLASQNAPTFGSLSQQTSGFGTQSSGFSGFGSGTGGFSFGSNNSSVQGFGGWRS

Tests used:
[1] = target: Nup214 (human (endogenous in HeLa)) (UniProt P35658); assay: affinity purification with mass spectrometry
[2] = target: Nup214 (human (endogenous in HeLa)) (UniProt P35658); assay: affinity purification with mass spectrometry; remark: listed apart in the source

| binding [1] | binding [2] | Molecule |
| --- | --- | --- |
| binds | – | Nup98 (from UniProt P52948 1-880) |
| – | binds | Nup96 (protein, UniProt P52948 881-1817) SKYGLQDSDEEEEEHPSKTSTKKLKTAPLPPASQTTPLQMALNGKPAPPPQSQSPEVEQLGRVVELDSDMVDITQEPVLDTMLEESMPEDQEPVSASTHIASSLGINPHVLQIMKASLLTDEEDVDMALDQRFSRLPSKADTSQEICSPRLPISASHSSKTRSLVGGLLQSKFTSGAFLSPSVSVQECRTPRAASLMNIPSTSSWSVPPPLTSVFTMPSPAPEVPLKTVGTRRQLGLVPREKSVTYGKGKLLMDMALFMGRSFRVGWGPNWTLANSGEQLNGSHELENHQIADSMEFGFLPNPVAVKPLTESPFKVHLEKLSLRQRKPDEDMKLYQTPLELKLKHSTVHVDELCPLIVPNLGVAVIHDYADWVKEASGDLPEAQIVKHWSLTWTLCEALWGHLKELDSQLNEPREYIQILERRRAFSRWLSCTATPQIEEEVSLTQKNSPVEAVFSYLTGKRISEACSLAQQSGDHRLALLLSQFVGSQSVRELLTMQLVDWHQLQADSFIQDERLRIFALLAGKPVWQLSEKKQINVCSQLDWKRSLAIHLWYLLPPTASISRALSMYEEAFQNTSDSDRYACSPLPSYLEGSGCVIAEEQNSQTPLRDVCFHLLKLYSDRHYDLNQLLEPRSITADPLDYRLSWHLWEVLRALNYTHLSAQCEGVLQASYAGQLESEGLWEWAIFVLLHIDNSGIREKAVRELLTRHCQLLETPESWAKETFLTQKLRVPAKWIHEAKAVRAHMESDKHLEALCLFKAEHWNRCHKLIIRHLASDAIINENYDYLKGFLEDLAPPERSSLIQDWETSGLVYLDYIRVIEMLRHIQQVDCSGNDLEQLHIKVTSLCSRIEQIQCYSAKDRLAQSDMAKRVANLLRVVLSLHHPPDRTSDSTPDPQRVPLRLLAPHIGRLPMPEDYAMDELRSLTQSYLRELAVGSL |
